Laboratory results: patent US20260242453A1
No constants are given. Whether binding was seen depends on the method and setting. Some results given as binding are weak or reduced against the parent protein; the word gives no strength. One block for each binder: values may come before it.

Protein sequences, listed by entry. Tags and fused reporters are not part of them. Residues count along the entry.
UniProt P04280, residues 17-392: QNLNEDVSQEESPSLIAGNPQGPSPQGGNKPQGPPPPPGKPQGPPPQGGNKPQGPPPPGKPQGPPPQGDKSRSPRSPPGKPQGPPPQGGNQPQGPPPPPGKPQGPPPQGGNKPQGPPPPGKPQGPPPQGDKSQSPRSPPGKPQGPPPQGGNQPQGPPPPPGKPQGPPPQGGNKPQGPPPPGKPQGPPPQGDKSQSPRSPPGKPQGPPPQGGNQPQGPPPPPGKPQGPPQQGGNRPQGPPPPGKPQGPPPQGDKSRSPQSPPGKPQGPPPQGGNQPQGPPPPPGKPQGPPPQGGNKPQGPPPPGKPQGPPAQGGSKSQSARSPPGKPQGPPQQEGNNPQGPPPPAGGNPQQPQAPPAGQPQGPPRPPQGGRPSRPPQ

Key:
[1] = target: human PRB1 protein (human) (UniProt P04280); assay: sandwich ELISA, 2B3 capture and 8A10 detection, human saliva and serum samples
[2] = target: human PRB1 protein (human) (UniProt P04280); assay: sandwich ELISA, 2B3 mAb coated as capture antibody and 8A10 mAb as detection antibody, saliva and serum specimens
[3] = target: human PRB1 protein (human) (UniProt P04280); assay: Western blot of saliva; pull-down assay from serum
[4] = target: human PRB1 protein (human) (UniProt P04280); assay: sandwich ELISA, 2B3 mAb as capture and 8A10 mAb as detection antibody, saliva and serum specimens

- binding [1]: binds
- binding [2]: binds
B1: Rat anti-hPRB1 IgM (2B3) mAb (antibody, V domains shown)
VH: QIQLVQSGPELKKPGESVKISCKASGYTFTDYAMHWVKQAPGKGLKWMGWINTYTGKPTYADDCKGRFVFSLEASASTANLQISNLKNEDTATYFCAREMYTTDYYYVDYWGQGVMVTVSS
VL: DIHVTQSPASLSASPEEIVTITCQASQDIDSSLLWYQQKPGKSPQLLIYSATILADGVPSRFSGSRSGTQYSLKISRLQVEDIGTYYCLQFSSSPLTFGSGTKLEIK

- binding [3]: binds
- binding [1]: binds
- binding [4]: binds
B2: Rat anti-hPRB1 IgG (8A10) mAb (antibody, V domains shown)
VH: QVNLLQSGAALVKPGASVKLSCKASGYTFTDYYIHWVRQSHGKSLEWIGFINPNSGYTTYNEKFKSKATLTVDKSTNTAYMELSRLTSEDSATYYCTRFAMDAWGQGASVTVSS
VL: DVVVSQTPPTLSATIGQSVSISCRSSQSLLHSNGNTYLNWLLQRPGQPPQLLIYLVSRLESGVPNRFSGSGSGTDFTLKISGVEAEDLGVYYCVQSIHAPNTFGAGTKLELK
